Reference: patent US11230581B2, “Peptides and combination of peptides for use in immunotherapy against ovarian cancer and other cancers” (Immatics Biotechnologies GmbH, priority 2015, dated 2022)

Columns and labels:
additional tumor types = experiment: LC-MS detection and over-presentation of the peptides on additional tumor types, cell lines and primary cultures; parameters: species or system human; conditions: for Other relevant organs/ cancerous diseases: Table 4A: additional tumor types on which the peptide was found, over-presented on more than 5% of measured tumor samples, or presented on more than 5% with ratio of geometric means tumor vs normal tissues larger than 3
ovarian cancer samples = experiment: Relative LC-MS quantitation of HLA-presented peptides: presentation and over-presentation on ovarian cancer vs a panel of normal tissues (presentation score); parameters: species or system human; key: +++: very highly over-presented on tumors compared to a panel of normal tissues; ++: highly over-presented on tumors compared to a panel of normal tissues; +: over-presented on tumors compared to a panel of normal tissues; conditions: over-presentation on tumors compared to a panel of normal tissues
[1] = amendment of Table 4: additional tumor types showing over-presentation (including specific presentation) on more than 5% of measured tumor samples, or presentation on more than 5% with ratio of geometric means tumor vs normal tissues larger than 3
[2] = additional tumor types with over-presentation on more than 5% of the measured tumor samples, or presentation on more than 5% with ratio of geometric means tumor vs normal tissues larger than 3

Substance | Other relevant organs/ cancerous diseases (additional tumor types) | Additional organs/cancerous diseases (additional tumor types; [1]) | Peptide Presentation (presentation score) (ovarian cancer samples) | Additional organs/cancerous diseases (additional tumor types; [2])
91 (IMQDFPAEIFL; listed as Homo sapiens) [compound 91] | SCLC | CLL, BRCA, Melanoma, Gallbladder Cancer and Bile Duct Cancer, AML, NHL, HNSCC | +++ | 
188 (GLFPVTPEAV; listed as Homo sapiens) [compound 188] | Colon, Rectum, HCC |  | + | Uterine Cancer
148 (ALNPEIVSV; listed as Homo sapiens) [compound 148] | Esophageal Cancer, Urinary bladder Cancer | SCLC, CLL, Melanoma, NHL, HNSCC | +++ | 
640 (YLFSEALNAA; listed as Homo sapiens) [compound 640] | SCLC, GC, CRC, HCC, PrC, BrCa, MCC, Esophageal Cancer, Urinary bladder Cancer, Uterine Cancer, Gallbladder Cancer, Bile Duct Cancer |  | + | 
529 (LLADELITV; listed as Homo sapiens) [compound 529] | Prostate, Leukemia, Urinary bladder Cancer |  | ++ | SCLC, CLL, HNSCC
328 (ALNDQVFEI; listed as Homo sapiens) [compound 328] | SCLC, Brain Cancer, HCC, Esophageal Cancer, Uterine Cancer |  | + | AML
79 (SLFIGEKAVLL; listed as Homo sapiens) [compound 79] | NSCLC, SCLC, CRC, Leukemia, Esophageal Cancer, Urinary bladder Cancer | CLL, BRCA, Melanoma, Gallbladder Cancer and Bile Duct Cancer, AML, NHL, HNSCC | ++ | 
55 (SLLDLETLSL; listed as Homo sapiens) [compound 55] | SCLC |  | +++ | 
206 (VLQEGKLQKLAQL; listed as Homo sapiens) [compound 206] |  |  | +++ | NSCLC, SCLC, BRCA, Uterine Cancer, HNSCC
233 (VLSETLYEL; listed as Homo sapiens) [compound 233] | SCLC, Endometrium |  | ++ | BRCA, HNSCC
522 (TLWYRSPEV; listed as Homo sapiens) [compound 522] | SCLC |  | +++ | Melanoma
151 (KILQQLVTL; listed as Homo sapiens) [compound 151] | Endometrium | BRCA, Melanoma, Gallbladder Cancer and Bile Duct Cancer | +++ | 
32 (KLDDLTQDLTV; listed as Homo sapiens) [compound 32] |  | SCLC, Esophageal Cancer, Urinary Bladder Cancer, Gallbladder Cancer and Bile Duct Cancer, HNSCC | +++ | 
505 (SLAPGDVVRQV; listed as Homo sapiens) [compound 505] | Esophageal Cancer |  | +++ | BRCA, Urinary Bladder Cancer, HNSCC
111 (YVWGFYPAEV; listed as Homo sapiens) [compound 111] |  | CLL, Uterine Cancer, NHL | +++ | 
296 (FMEGAIIYV; listed as Homo sapiens) [compound 296] | SCLC, Leukemia |  | ++ | 
576 (ILLNNSGQIKL; listed as Homo sapiens) [compound 576] | NSCLC, CRC, HCC, Leukemia, BrCa, Melanoma, Esophageal Cancer |  | ++ | 
603 (FLIEPEHVNTV; listed as Homo sapiens) [compound 603] | HCC, PC, Leukemia, Melanoma |  | + | CLL
322 (TLMTSLPAL; listed as Homo sapiens) [compound 322] |  |  | ++ | CLL, BRCA, Melanoma, Uterine Cancer, Gallbladder Cancer and Bile Duct Cancer, AML, NHL
27 (ILADIVISA; listed as Homo sapiens) [compound 27] | NSCLC, SCLC, PC, BrCa, Esophageal Cancer | Melanoma, Uterine Cancer, Gallbladder Cancer and Bile Duct Cancer | + | 
105 (LLLEHSFEI; listed as Homo sapiens) [compound 105] | NSCLC, Melanoma | Urinary Bladder Cancer, Gallbladder Cancer and Bile Duct Cancer, NHL, HNSCC | ++ | 

Substance | Other relevant organs/ cancerous diseases (additional tumor types) | Additional organs/cancerous diseases (additional tumor types; [1]) | Peptide Presentation (presentation score) (ovarian cancer samples) | Additional organs/cancerous diseases (additional tumor types; [2])
192 (KMLDGASFTL; listed as Homo sapiens) [compound 192] |  |  | +++ | BRCA
390 (ALFMKQIYL; listed as Homo sapiens) [compound 390] | Urinary bladder Cancer |  | ++ | 
591 (SMAELDIKL; listed as Homo sapiens) [compound 591] | Leukemia, Esophageal Cancer, Endometrium |  | ++ | AML, HNSCC
8 (FTLGNVVGMYL; listed as Homo sapiens) [compound 8] |  | Melanoma, Urinary Bladder Cancer, Uterine Cancer | +++ | 
257 (SIFSAFLSV; listed as Homo sapiens) [compound 257] | Stomach, Urinary bladder Cancer |  | +++ | Melanoma, Gallbladder Cancer and Bile Duct Cancer, AML, NHL
558 (GLLENIPRV; listed as Homo sapiens) [compound 558] | NSCLC, SCLC, RCC, Brain Cancer, HCC, Leukemia, Uterine Cancer, Gallbladder Cancer, Bile Duct Cancer |  | ++ | CLL, BRCA, Melanoma, AML, NHL
125 (VQIHQVAQV; listed as Homo sapiens) [compound 125] | NSCLC, SCLC, HCC, PC, Esophageal Cancer, Gallbladder Cancer, Bile Duct Cancer |  | +++ | 
63 (YLLPSGGSVTL; listed as Homo sapiens) [compound 63] | HCC, Melanoma, Esophageal Cancer | Gallbladder Cancer and Bile Duct Cancer, HNSCC | +++ | 
102 (YLFESEGLVL; listed as Homo sapiens) [compound 102] |  | CLL, Melanoma | +++ | 
175 (YLFENISQL; listed as Homo sapiens) [compound 175] |  | Esophageal Cancer, Urinary Bladder Cancer, HNSCC | +++ | 
327 (GLAPFTEGISFV; listed as Homo sapiens) [compound 327] | HCC |  | ++ | NSCLC, Gallbladder Cancer and Bile Duct Cancer
3 (SLASKLTTL; listed as Homo sapiens) [compound 3] |  | Uterine Cancer | +++ | 
494 (ALQPEPIKV; listed as Homo sapiens) [compound 494] | Urinary bladder, Gallbladder, Bile duct |  | +++ | 
586 (KLKPGDLVGV; listed as Homo sapiens) [compound 586] | Brain Cancer, HCC |  | + | Uterine Cancer
518 (KLNAEVACV; listed as Homo sapiens) [compound 518] | CRC, PrC, Esophageal Cancer |  | +++ | BRCA, Melanoma, Urinary Bladder Cancer, Uterine Cancer, HNSCC
618 (VLFDSESIGIYV; listed as Homo sapiens) [compound 618] | SCLC, Melanoma |  | + | 
166 (YLNHLEPPV; listed as Homo sapiens) [compound 166] | SCLC, HCC, Leukemia, Esophageal Cancer | Brain Cancer, CLL, BRCA, AML, NHL | +++ | 
69 (FQLDPSSGVLVTV; listed as Homo sapiens) [compound 69] | Esophageal Cancer | HNSCC | +++ | 
497 (GLLEKLTAI; listed as Homo sapiens) [compound 497] | NSCLC, RCC, Esophageal Cancer, Uterine Cancer |  | + | SCLC, CLL, BRCA, Melanoma, Urinary Bladder Cancer, AML, NHL
503 (SLNHFTHSV; listed as Homo sapiens) [compound 503] | NSCLC, Leukemia |  | + | HCC, CLL, Urinary Bladder Cancer, AML, NHL, HNSCC
